Experimental data from paper PMC4408062.
These are yes or no findings as the source states them, for the method shown. For part of these data: Binding seen in cells or lysates may run through a third protein. Some binding calls cover weakened binding; strength is not graded here.

Assays:
[1] = target: Low density lipoprotein receptor (LDLR), in HepG2 cells (human (endogenous in HepG2)) (UniProt P01130); experiment: co-IP; HepG2 cells lysed directly on the plate (compared with Accutase harvest; also Neg or LDLR siRNA treated cells); coIP buffer 20mM Hepes pH 7.4, 20mM CaCl2, 150mM NaCl, 0.1% Triton x-100; 10 μg/ml J16, anti-LDLR, anti-APLP2 or IC antibody with mAb select protein A beads overnight; western blot
[2] = target: Low density lipoprotein receptor (LDLR), in HepG2 cells (human (endogenous in HepG2)) (UniProt P01130); experiment: co-IP; as a1 at pH 7.4, with 10 μg/ml Fab fragments (5F6, 12E3 or J16) added to the IPs
LDLR-ECD-6xHis = LDLR-ECD-6xHis (UniProt P01130); experiment: ELISA; MaxiSorp plates coated with 5 μg/ml LDLR-ECD, APLP2-ECD at varying concentrations, pH 7.4; also 5 μg/ml APLP2-ECD with increasing PCSK9; detected with mouse anti-human APLP2 and goat anti-mouse HRP; both purified

| Substance | binding [1] | binding [2] | binding (LDLR-ECD-6xHis) |
| --- | --- | --- | --- |
| Amyloid precursor like protein 2 (APLP2), in HepG2 cells (from UniProt Q06481 32-763) | binds | binds |  |
| Recombinant APLP2-ECD (from UniProt Q06481 32-692) (domain or fragment) |  |  | binds |
